# The supplement of paper PMC8728848
# The list shows a part of the results.
# Key:
# Assay in all cases: glycan array binding signal (z-score within array); higher = stronger binding
# Conditions in all cases: glycan notation: IUPAC condensed, linker removed
# [1] = target: Gal3S(b1-4)Glc
# Method in brief: (§1)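 From the Consortium for Functional Glycomics database, 3228 arrays were curated, keeping only those whose protein sequence was available. Binding is given as a within-array Z-score averaged across arrays sharing a protein sequence and across linkers. Negative Z-scores can be read as non-binding.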
# [2] = target: Gal3S(b1-4)Glc6S
# Method in brief: as §1
# [3] = target: Gal3S(b1-4)GlcNAc
# Method in brief: as §1
# [4] = target: Gal3S(b1-4)[Fuc(a1-3)]Glc6S
# Method in brief: as §1
# [5] = target: Gal3S(b1-4)[Fuc(a1-3)]GlcNAc
# Method in brief: as §1
# [6] = target: Gal3S(b1-4)[Fuc(a1-3)]GlcNAc6S
# Method in brief: as §1
# [7] = target: Gal3S4S(b1-4)GlcNAc
# Method in brief: as §1
# [8] = target: Gal3S6S(b1-4)GlcNAc
# Method in brief: as §1
# [9] = target: Gal3S6S(b1-4)GlcNAc6S
# Method in brief: as §1
# [10] = target: Gal4S(b1-4)GlcNAc
# Method in brief: as §1
# [11] = target: Gal4S6S(b1-4)GlcNAc
# Method in brief: as §1
# [12] = target: Gal6P(b1-4)GlcNAc
# Method in brief: as §1
# [13] = target: Gal6S(b1-3)GlcNAc
# Method in brief: as §1
# [14] = target: Gal6S(b1-3)GlcNAc6S
# Method in brief: as §1
# [15] = target: Gal6S(b1-4)Glc
# Method in brief: as §1
# [16] = target: Gal6S(b1-4)Glc6S
# Method in brief: as §1
# [17] = target: Gal6S(b1-4)GlcNAc
# Method in brief: as §1
# [18] = target: Gal6S(b1-4)GlcNAc6S
# Method in brief: as §1
# [19] = target: GalNAc(a1-3)Gal
# Method in brief: as §1
# [20] = target: GalNAc(a1-3)GalNAc
# Method in brief: as §1
# [21] = target: GalNAc(a1-3)GalNAc(b1-3)Gal(a1-4)Gal(b1-4)Glc
# Method in brief: as §1
# [22] = target: GalNAc(a1-3)GalNAc(b1-3)Gal(a1-4)Gal(b1-4)GlcNAc
# Method in brief: as §1
# [23] = target: GalNAc(b1-3)Gal
# Method in brief: as §1
# [24] = target: GalNAc(b1-3)Gal(a1-4)Gal(b1-4)GlcNAc
# Method in brief: as §1
# [25] = target: GalNAc(b1-3)Gal(a1-4)Gal(b1-4)GlcNAc(b1-3)Gal(b1-4)Glc
# Method in brief: as §1
# [26] = target: GalNAc(b1-3)Gal(a1-6)Gal(b1-4)Glc
# Method in brief: as §1
# [27] = target: GalNAc(b1-3)GalNAc
# Method in brief: as §1
# [28] = target: GalNAc(b1-3)GlcNAc
# Method in brief: as §1
# [29] = target: GalNAc(b1-4)Gal(b1-4)Glc
# Method in brief: as §1
# [30] = target: GalNAc(b1-4)GlcNAc
# Method in brief: as §1
# [31] = target: GalNAc(b1-4)GlcNAc(b1-2)Man
# Method in brief: as §1
# [32] = target: GalNAc(b1-4)GlcNAc(b1-2)Man(a1-3)[GalNAc(b1-4)GlcNAc(b1-2)Man(a1-6)]Man(b1-4)GlcNAc(b1-4)GlcNAc
# Method in brief: as §1
# [33] = target: GalNAc(b1-4)GlcNAc(b1-3)GalNAc(b1-4)GlcNAc
# Method in brief: as §1
# [34] = target: GalNAc(b1-4)GlcNAc6S
# Method in brief: as §1
# [35] = target: GalNAc(b1-6)GalNAc
# Method in brief: as §1
# [36] = target: GalNAc3S(b1-4)GlcNAc
# Method in brief: as §1
# [37] = target: GalNAc3S(b1-4)GlcNAc3S
# Method in brief: as §1
binder,measurement,setting,value
GS7807Q-bfa-507-19-507 (Bacteroides fragilis) (protein) ASCNKFDDLNTNPDAATKVTAPMLATKLILNITQQGSAKNFVYHSMLSKQIAWSENASDEQYNLFGRTDFDGYTILTNCQKMVDAANEGDKDSYAALAKFMKAYKLFYKSLEVGDIPYSDALKGEEGVQKPKYDTQKEVMRQVLEDLEEAYTLFSSGSDFDGDPIFGGDTENWKKTVVAFELKVLTHLCKKDTDADLKVKERFARLVSSGSLMTSNADNFQLVYSNKAGQLYPFYYTQNKHSDYLMMSSVIIDNLKKFNDYRMFYYASPAKAQTDKGIKDSEWDAYLSIDPSDSYSNISVLYGKGEFCLANLRYTRVPEGEPLMRLSYAEQNFILAEGAVRGWISEDASTYYKKGIEASMNFIADNTPDKEEYTHGRTITQEYIQEYLAQPVIQLSGDKEKDLEMILLQRYLASFLQHPYDAYYDYRRTGYPVLPINPSTNLNTEKNKIPTRWMYPEAEFSYNPDNANEAVQRQYNGSDDVNKLMWILQ,glycan array binding signal (z-score),[1],-0.474
same,glycan array binding signal (z-score),[2],-0.973
same,glycan array binding signal (z-score),[3],-0.083
same,glycan array binding signal (z-score),[4],2.33
same,glycan array binding signal (z-score),[5],1.08
same,glycan array binding signal (z-score),[6],1.06
same,glycan array binding signal (z-score),[7],-0.412
same,glycan array binding signal (z-score),[8],-0.672
same,glycan array binding signal (z-score),[9],-0.487
same,glycan array binding signal (z-score),[10],-0.228
same,glycan array binding signal (z-score),[11],-0.168
same,glycan array binding signal (z-score),[12],-0.571
same,glycan array binding signal (z-score),[13],-0.524
same,glycan array binding signal (z-score),[14],0.954
same,glycan array binding signal (z-score),[15],-0.53
same,glycan array binding signal (z-score),[16],-0.326
same,glycan array binding signal (z-score),[17],1.16
same,glycan array binding signal (z-score),[18],-0.605
same,glycan array binding signal (z-score),[19],0.879
same,glycan array binding signal (z-score),[20],-0.06
same,glycan array binding signal (z-score),[21],-0.545
same,glycan array binding signal (z-score),[22],-0.585
same,glycan array binding signal (z-score),[23],-0.84
same,glycan array binding signal (z-score),[24],1.04
same,glycan array binding signal (z-score),[25],-0.14
same,glycan array binding signal (z-score),[26],0.239
same,glycan array binding signal (z-score),[27],-0.502
same,glycan array binding signal (z-score),[28],-0.454
same,glycan array binding signal (z-score),[29],1.21
same,glycan array binding signal (z-score),[30],3.09
same,glycan array binding signal (z-score),[31],0.2
same,glycan array binding signal (z-score),[32],1.88
same,glycan array binding signal (z-score),[33],-0.241
same,glycan array binding signal (z-score),[34],0.143
same,glycan array binding signal (z-score),[35],-1.45
same,glycan array binding signal (z-score),[36],-0.67
same,glycan array binding signal (z-score),[37],-0.279

# 10 entries from above, as tab-separated lines.
binder	measurement	setting	value
GS7807Q-bfa-507-19-507 (Bacteroides fragilis) (protein) ASCNKFDDLNTNPDAATKVTAPMLATKLILNITQQGSAKNFVYHSMLSKQIAWSENASDEQYNLFGRTDFDGYTILTNCQKMVDAANEGDKDSYAALAKFMKAYKLFYKSLEVGDIPYSDALKGEEGVQKPKYDTQKEVMRQVLEDLEEAYTLFSSGSDFDGDPIFGGDTENWKKTVVAFELKVLTHLCKKDTDADLKVKERFARLVSSGSLMTSNADNFQLVYSNKAGQLYPFYYTQNKHSDYLMMSSVIIDNLKKFNDYRMFYYASPAKAQTDKGIKDSEWDAYLSIDPSDSYSNISVLYGKGEFCLANLRYTRVPEGEPLMRLSYAEQNFILAEGAVRGWISEDASTYYKKGIEASMNFIADNTPDKEEYTHGRTITQEYIQEYLAQPVIQLSGDKEKDLEMILLQRYLASFLQHPYDAYYDYRRTGYPVLPINPSTNLNTEKNKIPTRWMYPEAEFSYNPDNANEAVQRQYNGSDDVNKLMWILQ	glycan array binding signal (z-score)	[18]	-0.605
same	glycan array binding signal (z-score)	[19]	0.879
same	glycan array binding signal (z-score)	[20]	-0.06
same	glycan array binding signal (z-score)	[21]	-0.545
same	glycan array binding signal (z-score)	[22]	-0.585
same	glycan array binding signal (z-score)	[23]	-0.84
same	glycan array binding signal (z-score)	[24]	1.04
same	glycan array binding signal (z-score)	[25]	-0.14
same	glycan array binding signal (z-score)	[26]	0.239
same	glycan array binding signal (z-score)	[27]	-0.502
